The other results are listed elsewhere or left out.
Key:
Test in all cases: log2 fold change, soluble protein after heating vs DMSO (PISA); higher = thermal stabilisation; K562 lysate, 10 uM; active = over 0.2 and 3.5 SD of the protein, either way, in both replicates (recomputed)
lapatinib = compound: CS(=O)(=O)CCNCc1ccc(-c2ccc3ncnc(Nc4ccc(OCc5cccc(F)c5)c(Cl)c4)c3c2)o1 [lapatinib]
Summary of the method: (§1)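 A 30 min treatment with 10 μM compound was applied to crude K562 extract at 1 mg/mL protein in PBS pH 7.4 with 1 mM MgCl2. Heating for 3 min spanned 48°C-58°C, after which aliquots were pooled, adjusted to 0.5% NP-40 at 4°C and spun at 21,000xg for 90 min. TMTpro 16plex LC-MS/MS of the supernatant, with channel sums equalised, gave values recorded as log-two fold change in thermal stability against solvent controls, from duplicates.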

Chains of the proteins cited; added tags and fusions are not shown. Lines headed by an entry give the natural chain unless they say otherwise; changes in a name come on top.
UniProt P43246, whole entry, looked up: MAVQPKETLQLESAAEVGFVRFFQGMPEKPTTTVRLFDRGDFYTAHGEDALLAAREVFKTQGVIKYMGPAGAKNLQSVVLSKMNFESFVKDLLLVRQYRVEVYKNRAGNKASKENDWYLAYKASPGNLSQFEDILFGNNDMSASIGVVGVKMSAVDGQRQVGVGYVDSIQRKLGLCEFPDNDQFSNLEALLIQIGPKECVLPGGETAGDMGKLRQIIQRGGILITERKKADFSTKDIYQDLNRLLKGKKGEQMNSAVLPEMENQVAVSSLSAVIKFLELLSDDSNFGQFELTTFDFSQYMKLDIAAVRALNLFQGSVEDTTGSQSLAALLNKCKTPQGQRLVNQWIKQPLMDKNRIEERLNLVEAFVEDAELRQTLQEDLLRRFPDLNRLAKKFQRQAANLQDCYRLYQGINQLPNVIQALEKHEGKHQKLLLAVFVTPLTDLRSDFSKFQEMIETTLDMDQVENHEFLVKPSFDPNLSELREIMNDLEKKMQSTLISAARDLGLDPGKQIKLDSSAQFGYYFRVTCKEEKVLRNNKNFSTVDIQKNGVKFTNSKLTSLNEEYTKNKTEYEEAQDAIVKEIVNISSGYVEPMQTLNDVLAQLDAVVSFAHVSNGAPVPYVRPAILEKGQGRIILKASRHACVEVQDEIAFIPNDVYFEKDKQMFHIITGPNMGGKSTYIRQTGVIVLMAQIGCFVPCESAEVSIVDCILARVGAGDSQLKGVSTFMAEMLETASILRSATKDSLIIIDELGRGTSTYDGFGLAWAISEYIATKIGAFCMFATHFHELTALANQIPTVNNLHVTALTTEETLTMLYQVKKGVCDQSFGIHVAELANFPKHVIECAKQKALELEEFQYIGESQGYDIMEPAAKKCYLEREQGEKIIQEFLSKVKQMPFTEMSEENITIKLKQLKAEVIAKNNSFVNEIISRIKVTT
UniProt P03886, whole entry, looked up: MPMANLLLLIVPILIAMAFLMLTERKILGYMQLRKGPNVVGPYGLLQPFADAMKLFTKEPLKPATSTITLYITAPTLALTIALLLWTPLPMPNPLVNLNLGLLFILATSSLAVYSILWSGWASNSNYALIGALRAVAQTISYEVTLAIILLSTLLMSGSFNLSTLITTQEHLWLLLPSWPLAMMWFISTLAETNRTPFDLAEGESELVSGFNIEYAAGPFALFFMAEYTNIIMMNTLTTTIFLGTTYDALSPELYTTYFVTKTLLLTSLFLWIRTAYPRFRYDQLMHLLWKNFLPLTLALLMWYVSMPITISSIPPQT
UniProt P00846: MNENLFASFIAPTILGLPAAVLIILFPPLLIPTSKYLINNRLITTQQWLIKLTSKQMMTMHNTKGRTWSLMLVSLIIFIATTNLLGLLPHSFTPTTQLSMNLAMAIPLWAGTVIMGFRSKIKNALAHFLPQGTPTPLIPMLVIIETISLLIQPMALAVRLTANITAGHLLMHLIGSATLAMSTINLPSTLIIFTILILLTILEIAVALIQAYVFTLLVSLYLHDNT
UniProt Q13330: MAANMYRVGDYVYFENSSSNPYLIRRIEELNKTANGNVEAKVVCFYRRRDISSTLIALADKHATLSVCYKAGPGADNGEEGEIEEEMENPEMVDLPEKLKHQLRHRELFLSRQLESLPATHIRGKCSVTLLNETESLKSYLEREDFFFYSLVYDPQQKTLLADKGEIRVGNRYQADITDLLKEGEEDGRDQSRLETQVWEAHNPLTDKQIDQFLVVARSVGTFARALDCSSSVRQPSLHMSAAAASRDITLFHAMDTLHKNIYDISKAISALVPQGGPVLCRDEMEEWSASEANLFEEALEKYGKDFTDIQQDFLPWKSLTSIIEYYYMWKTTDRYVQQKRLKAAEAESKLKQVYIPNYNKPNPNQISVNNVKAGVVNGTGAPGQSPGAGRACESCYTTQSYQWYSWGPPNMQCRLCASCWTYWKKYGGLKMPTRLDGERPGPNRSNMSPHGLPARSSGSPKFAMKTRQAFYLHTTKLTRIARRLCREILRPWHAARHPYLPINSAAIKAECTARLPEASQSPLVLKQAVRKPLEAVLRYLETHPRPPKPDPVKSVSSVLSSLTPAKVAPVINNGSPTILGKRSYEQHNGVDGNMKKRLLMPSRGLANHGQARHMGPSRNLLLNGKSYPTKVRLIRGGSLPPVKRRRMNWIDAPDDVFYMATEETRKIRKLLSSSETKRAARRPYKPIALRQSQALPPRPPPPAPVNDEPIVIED
UniProt P42898: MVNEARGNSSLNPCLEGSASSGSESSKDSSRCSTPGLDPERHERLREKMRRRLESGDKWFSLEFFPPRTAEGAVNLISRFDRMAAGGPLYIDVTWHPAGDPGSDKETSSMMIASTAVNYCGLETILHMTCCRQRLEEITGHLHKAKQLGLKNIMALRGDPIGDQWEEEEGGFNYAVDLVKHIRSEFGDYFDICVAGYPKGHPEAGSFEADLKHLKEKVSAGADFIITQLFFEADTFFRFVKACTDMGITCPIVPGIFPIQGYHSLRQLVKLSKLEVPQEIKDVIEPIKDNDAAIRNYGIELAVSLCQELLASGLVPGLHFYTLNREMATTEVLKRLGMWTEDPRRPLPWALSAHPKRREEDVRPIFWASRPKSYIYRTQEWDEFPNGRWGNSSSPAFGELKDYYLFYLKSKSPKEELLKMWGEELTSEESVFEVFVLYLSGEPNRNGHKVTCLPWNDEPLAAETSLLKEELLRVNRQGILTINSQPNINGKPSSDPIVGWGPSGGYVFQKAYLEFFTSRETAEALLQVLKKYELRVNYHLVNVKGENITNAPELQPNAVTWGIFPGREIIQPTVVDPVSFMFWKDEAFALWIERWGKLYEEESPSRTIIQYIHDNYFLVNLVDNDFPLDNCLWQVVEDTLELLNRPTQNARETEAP
UniProt P03891, whole entry, looked up: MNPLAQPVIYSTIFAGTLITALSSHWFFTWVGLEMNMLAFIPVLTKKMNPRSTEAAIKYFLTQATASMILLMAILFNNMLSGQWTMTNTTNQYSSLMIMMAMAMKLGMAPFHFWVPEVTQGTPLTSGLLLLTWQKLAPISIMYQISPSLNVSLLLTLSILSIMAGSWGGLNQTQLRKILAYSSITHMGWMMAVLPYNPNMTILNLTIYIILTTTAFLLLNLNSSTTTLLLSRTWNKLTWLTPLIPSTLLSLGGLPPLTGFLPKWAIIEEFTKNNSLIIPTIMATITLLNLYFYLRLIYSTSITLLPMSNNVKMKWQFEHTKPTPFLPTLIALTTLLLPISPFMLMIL
UniProt Q9UDX5: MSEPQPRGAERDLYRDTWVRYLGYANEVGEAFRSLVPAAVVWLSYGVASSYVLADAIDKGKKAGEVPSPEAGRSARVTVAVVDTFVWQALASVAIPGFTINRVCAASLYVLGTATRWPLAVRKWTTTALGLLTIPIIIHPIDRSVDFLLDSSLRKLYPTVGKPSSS
UniProt Q9ULH7: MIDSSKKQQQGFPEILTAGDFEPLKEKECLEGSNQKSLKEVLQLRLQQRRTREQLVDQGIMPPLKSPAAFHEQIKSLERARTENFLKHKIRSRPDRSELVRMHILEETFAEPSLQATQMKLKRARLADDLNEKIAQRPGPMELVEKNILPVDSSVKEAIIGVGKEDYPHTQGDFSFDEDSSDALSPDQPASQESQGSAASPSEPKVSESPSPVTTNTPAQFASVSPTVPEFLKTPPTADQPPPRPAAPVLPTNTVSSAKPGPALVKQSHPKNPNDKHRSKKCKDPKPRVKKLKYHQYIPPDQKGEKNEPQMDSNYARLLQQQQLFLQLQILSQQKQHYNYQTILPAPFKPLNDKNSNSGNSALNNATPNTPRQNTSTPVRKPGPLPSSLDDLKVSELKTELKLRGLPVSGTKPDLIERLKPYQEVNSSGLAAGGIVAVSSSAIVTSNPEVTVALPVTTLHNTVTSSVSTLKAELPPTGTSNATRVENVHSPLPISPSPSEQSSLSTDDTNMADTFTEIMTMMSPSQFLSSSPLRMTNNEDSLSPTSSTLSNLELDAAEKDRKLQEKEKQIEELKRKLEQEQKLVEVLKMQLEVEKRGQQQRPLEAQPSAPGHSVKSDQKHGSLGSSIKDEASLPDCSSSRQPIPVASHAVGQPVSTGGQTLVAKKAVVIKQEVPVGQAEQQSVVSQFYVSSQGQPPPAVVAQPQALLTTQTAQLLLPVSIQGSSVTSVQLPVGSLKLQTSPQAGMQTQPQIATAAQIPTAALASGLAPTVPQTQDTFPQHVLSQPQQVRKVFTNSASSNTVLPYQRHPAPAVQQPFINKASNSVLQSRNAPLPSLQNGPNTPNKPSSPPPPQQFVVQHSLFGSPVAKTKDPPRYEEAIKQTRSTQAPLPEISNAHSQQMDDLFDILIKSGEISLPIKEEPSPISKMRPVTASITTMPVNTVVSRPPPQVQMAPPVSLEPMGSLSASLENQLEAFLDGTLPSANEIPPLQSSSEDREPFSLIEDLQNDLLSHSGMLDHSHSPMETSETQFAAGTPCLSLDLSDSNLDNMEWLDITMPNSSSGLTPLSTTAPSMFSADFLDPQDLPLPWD
UniProt Q86UE4: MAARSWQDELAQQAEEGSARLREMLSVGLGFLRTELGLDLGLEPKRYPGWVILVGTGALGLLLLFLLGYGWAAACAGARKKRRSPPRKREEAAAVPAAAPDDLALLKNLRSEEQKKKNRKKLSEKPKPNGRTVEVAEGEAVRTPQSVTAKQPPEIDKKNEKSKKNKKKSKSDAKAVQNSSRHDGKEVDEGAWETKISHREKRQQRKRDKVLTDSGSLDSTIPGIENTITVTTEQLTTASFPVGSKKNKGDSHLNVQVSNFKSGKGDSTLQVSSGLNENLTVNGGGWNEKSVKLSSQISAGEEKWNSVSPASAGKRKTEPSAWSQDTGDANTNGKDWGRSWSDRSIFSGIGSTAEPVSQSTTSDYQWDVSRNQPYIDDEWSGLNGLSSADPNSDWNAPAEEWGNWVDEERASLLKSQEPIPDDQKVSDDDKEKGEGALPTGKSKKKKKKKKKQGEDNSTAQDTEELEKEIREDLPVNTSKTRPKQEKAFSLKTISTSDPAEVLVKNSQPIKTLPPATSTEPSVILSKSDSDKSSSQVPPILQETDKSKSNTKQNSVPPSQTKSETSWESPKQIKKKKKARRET
UniProt P26038, whole entry, looked up: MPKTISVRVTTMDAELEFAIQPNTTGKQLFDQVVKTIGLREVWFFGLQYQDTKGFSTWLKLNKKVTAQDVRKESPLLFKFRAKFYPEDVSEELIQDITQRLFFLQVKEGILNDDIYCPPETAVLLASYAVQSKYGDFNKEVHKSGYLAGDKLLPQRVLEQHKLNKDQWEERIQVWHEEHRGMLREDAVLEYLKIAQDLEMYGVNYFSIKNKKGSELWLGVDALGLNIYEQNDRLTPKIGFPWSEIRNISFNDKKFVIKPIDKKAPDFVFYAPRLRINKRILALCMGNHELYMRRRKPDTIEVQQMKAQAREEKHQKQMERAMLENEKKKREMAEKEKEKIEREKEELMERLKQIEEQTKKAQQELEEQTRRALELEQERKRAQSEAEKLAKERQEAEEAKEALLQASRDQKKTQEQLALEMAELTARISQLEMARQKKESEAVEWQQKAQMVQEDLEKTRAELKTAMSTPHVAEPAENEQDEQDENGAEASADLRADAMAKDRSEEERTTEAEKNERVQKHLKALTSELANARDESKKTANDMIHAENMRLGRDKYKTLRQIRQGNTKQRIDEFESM
UniProt Q9Y217: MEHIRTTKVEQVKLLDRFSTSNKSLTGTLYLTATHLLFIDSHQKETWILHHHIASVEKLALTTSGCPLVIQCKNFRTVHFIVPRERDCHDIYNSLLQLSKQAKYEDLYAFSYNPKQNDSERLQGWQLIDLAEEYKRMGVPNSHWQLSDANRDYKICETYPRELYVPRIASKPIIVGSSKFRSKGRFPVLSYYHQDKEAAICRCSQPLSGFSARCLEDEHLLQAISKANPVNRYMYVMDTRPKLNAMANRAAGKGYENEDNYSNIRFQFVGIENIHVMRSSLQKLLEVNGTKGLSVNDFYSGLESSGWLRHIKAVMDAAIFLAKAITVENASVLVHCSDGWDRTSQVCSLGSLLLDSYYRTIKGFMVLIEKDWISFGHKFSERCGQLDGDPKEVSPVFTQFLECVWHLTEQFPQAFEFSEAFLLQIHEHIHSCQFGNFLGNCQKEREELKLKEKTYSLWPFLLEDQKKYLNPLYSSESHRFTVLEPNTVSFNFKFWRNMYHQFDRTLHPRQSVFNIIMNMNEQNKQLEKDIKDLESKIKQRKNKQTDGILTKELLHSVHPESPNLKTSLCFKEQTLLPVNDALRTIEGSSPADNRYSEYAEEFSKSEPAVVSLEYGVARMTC

pictilisib = compound: CS(=O)(=O)N1CCN(Cc2cc3nc(-c4cccc5[nH]ncc45)nc(N4CCOCC4)c3s2)CC1 [pictilisib]
Summary of the method: as §1

crizotinib = compound: C[C@@H](Oc1cc(-c2cnn(C3CCNCC3)c2)cnc1N)c1c(Cl)ccc(F)c1Cl [crizotinib]
Summary of the method: as §1

[1] = compound: C[C@H](C1=CC=C(C=C1)C(=O)NC2=C3C=CNC3=NC=C2)N
Summary of the method: as §1

duvelisib = compound: C[C@H](Nc1ncnc2nc[nH]c12)c1cc2cccc(Cl)c2c(=O)n1-c1ccccc1 [duvelisib]
Summary of the method: as §1

gandotinib = compound: Cc1cc(Nc2cc(CN3CCOCC3)c3nc(C)c(Cc4ccc(Cl)cc4F)n3n2)n[nH]1 [gandotinib]
Summary of the method: as §1

tozasertib = compound: Cc1cc(Nc2cc(N3CCN(C)CC3)nc(Sc3ccc(NC(=O)C4CC4)cc3)n2)n[nH]1 [tozasertib]
Summary of the method: as §1

doramapimod = compound: Cc1ccc(-n2nc(C(C)(C)C)cc2NC(=O)Nc2ccc(OCCN3CCOCC3)c3ccccc23)cc1 [doramapimod]
Summary of the method: as §1

bafetinib = compound: Cc1ccc(NC(=O)c2ccc(CN3CC[C@H](N(C)C)C3)c(C(F)(F)F)c2)cc1Nc1nccc(-c2cncnc2)n1 [bafetinib]
Summary of the method: as §1

[2] = compound: Cc1cccc(CC(=O)N2CCc3c2ccc(-c2cn(C)c4ncnc(N)c24)c3F)n1
Summary of the method: as §1

Target | log2 fold change (lapatinib) | log2 fold change (pictilisib) | log2 fold change (crizotinib) | log2 fold change [1] | log2 fold change (duvelisib) | log2 fold change (gandotinib) | log2 fold change (tozasertib) | log2 fold change (doramapimod) | log2 fold change (bafetinib) | log2 fold change [2]
MTHFD1 (UniProt V9GZ32) | inactive: -0.067 | – | – | – | – | – | – | – | – | –
MRPL43 isoform 4 (UniProt Q8N983) | inactive: 0.015 | inactive: 0.019 | inactive: -0.041 | inactive: 0.055 | inactive: 0.007 | inactive: -0.022 | inactive: 0.018 | inactive: 0.039 | inactive: -0.044 | inactive: -0.055
MSH2 (UniProt P43246) | inactive: -0.005 | inactive: -0.003 | inactive: -0.04 | inactive: 0.028 | inactive: -0.001 | inactive: -0.068 | inactive: 0.002 | inactive: 0.013 | inactive: -0.026 | inactive: 0.002
MT-ND1 (UniProt P03886) | inactive: -0.025 | inactive: -0.03 | inactive: -0.062 | active: -0.342 | inactive: -0.052 | inactive: 0.061 | inactive: -0.074 | inactive: 0.041 | inactive: 0.022 | inactive: 0.007
MT-ATP6 (UniProt P00846) | inactive: -0.112 | inactive: -0.095 | inactive: -0.053 | inactive: -0.082 | inactive: 0.058 | inactive: 0.047 | inactive: 0.181 | inactive: 0.008 | inactive: 0.154 | inactive: 0.175
MRPS15 (UniProt P82914) | inactive: -0.022 | inactive: -0.034 | inactive: -0.073 | inactive: -0.055 | inactive: 0.051 | inactive: 0.077 | inactive: 0.041 | inactive: 0.073 | inactive: -0.234 | inactive: 0.19
MTA1 (UniProt Q13330) | inactive: -0.002 | inactive: 0 | inactive: -0.008 | inactive: 0.001 | inactive: -0.059 | inactive: -0.067 | inactive: -0.002 | inactive: -0.009 | inactive: 0.023 | inactive: 0.017
MTHFR isoform 2 (UniProt P42898) | inactive: -0.037 | inactive: 0 | inactive: -0.005 | inactive: -0.03 | inactive: 0.029 | inactive: -0.025 | inactive: 0.005 | inactive: 0.018 | inactive: -0.064 | inactive: 0.059
MRTO4 (UniProt Q9UKD2) | inactive: -0.028 | inactive: 0.01 | inactive: 0.05 | inactive: -0.05 | inactive: -0.005 | inactive: -0.005 | inactive: -0.012 | inactive: -0.035 | inactive: -0.05 | inactive: 0.044
MRPS30 (UniProt Q9NP92) | inactive: 0.003 | inactive: -0.009 | inactive: -0.032 | inactive: -0.281 | inactive: 0.065 | inactive: 0.154 | inactive: 0.028 | inactive: -0.009 | inactive: -0.157 | inactive: 0.198
MRPL9 (UniProt Q9BYD2) | inactive: 0.037 | inactive: -0.049 | inactive: -0.073 | inactive: -0.003 | inactive: 0.04 | inactive: -0.06 | inactive: 0.052 | inactive: 0.026 | inactive: 0.097 | inactive: 0.049
MRPL3 (UniProt P09001) | inactive: 0.021 | inactive: 0.048 | inactive: -0.006 | inactive: -0.102 | inactive: 0.076 | inactive: 0.006 | inactive: 0.046 | inactive: -0.038 | inactive: -0.025 | inactive: 0.025
MT-ND2 (UniProt P03891) | inactive: -0.063 | inactive: 0 | inactive: 0.056 | inactive: -0.205 | inactive: -0.065 | inactive: -0.051 | inactive: 0.044 | inactive: 0.062 | inactive: 0.048 | inactive: -0.048
MRPL48 (UniProt Q96GC5) | inactive: -0.018 | inactive: -0.044 | inactive: -0.047 | inactive: 0.017 | inactive: -0.033 | inactive: -0.115 | inactive: -0.013 | inactive: 0.022 | inactive: 0.048 | inactive: 0.023
MRPS25 (UniProt P82663) | inactive: -0.01 | inactive: -0.006 | inactive: -0.053 | inactive: 0.101 | inactive: 0.031 | inactive: 0.022 | inactive: 0.02 | inactive: 0.014 | inactive: 0.072 | inactive: -0.055
MTHFD1, A0A384N5Y3 | inactive: -0.008 | inactive: -0.003 | inactive: -0.064 | inactive: 0.04 | inactive: 0.015 | inactive: -0.087 | inactive: 0.028 | inactive: 0.043 | inactive: -0.041 | inactive: -0.025
MRPS5 (UniProt P82675) | inactive: 0.025 | inactive: -0.003 | inactive: -0.01 | inactive: -0.027 | inactive: 0.017 | inactive: -0.041 | inactive: 0.039 | inactive: 0.046 | inactive: -0.002 | inactive: 0.044
MUC1, A0A087WWM1 | inactive: -0.009 | inactive: 0.054 | inactive: 0.077 | inactive: -0.098 | inactive: -0.045 | inactive: 0.007 | inactive: 0.011 | inactive: 0.058 | inactive: -0.015 | inactive: 0.091
MRPL57 (UniProt Q9BQC6) | inactive: -0.028 | inactive: -0.08 | inactive: -0.044 | inactive: -0.039 | inactive: -0.054 | inactive: 0.054 | inactive: 0.054 | inactive: 0.066 | inactive: 0.019 | inactive: 0.038
MTFP1 (UniProt Q9UDX5) | inactive: 0.026 | inactive: 0.017 | inactive: 0.097 | active: -0.364 | inactive: -0.01 | inactive: 0.059 | inactive: 0.006 | inactive: -0.043 | inactive: 0.01 | inactive: 0.067
MRTFB isoform 5 (UniProt Q9ULH7) | inactive: 0.038 | inactive: -0.015 | inactive: -0.029 | inactive: 0.018 | inactive: 0.021 | inactive: 0.021 | inactive: -0.036 | inactive: 0.006 | inactive: -0.033 | inactive: -0.016
MTDH (UniProt Q86UE4) | inactive: -0.019 | inactive: -0.01 | inactive: 0.028 | inactive: -0.016 | inactive: 0.012 | inactive: 0.034 | inactive: -0.033 | inactive: 0.002 | inactive: -0.001 | inactive: 0.008
MSN (UniProt P26038) | inactive: -0.013 | inactive: 0.019 | inactive: 0.035 | inactive: 0.005 | inactive: -0.004 | inactive: -0.021 | inactive: 0.008 | inactive: -0.021 | inactive: 0.026 | inactive: -0.028
MTMR6 (UniProt Q9Y217) | inactive: 0.017 | inactive: 0.025 | inactive: -0.037 | inactive: 0.071 | inactive: 0.02 | inactive: -0.024 | inactive: 0.014 | inactive: 0.056 | inactive: 0.001 | inactive: -0.113
MTMR1 (UniProt Q13613) | inactive: 0.033 | inactive: 0.015 | inactive: 0.07 | inactive: 0.097 | inactive: -0.036 | inactive: -0.067 | inactive: -0.01 | inactive: -0.049 | inactive: -0.032 | inactive: -0.017
MRPS27 isoform 2 (UniProt Q92552) | inactive: -0.013 | inactive: -0.036 | inactive: -0.068 | inactive: -0.102 | inactive: 0.019 | inactive: 0.121 | inactive: 0.039 | inactive: 0.016 | inactive: -0.055 | inactive: 0.197
MRPS9 (UniProt P82933) | inactive: 0.012 | inactive: 0.065 | inactive: -0.032 | inactive: -0.065 | inactive: 0.029 | inactive: 0.019 | inactive: 0.008 | inactive: 0.016 | inactive: 0.018 | inactive: 0.101
MRPS26 (UniProt Q9BYN8) | inactive: 0.052 | inactive: 0.05 | inactive: 0.042 | inactive: -0.074 | inactive: 0.028 | inactive: 0.003 | inactive: 0.031 | inactive: 0.066 | inactive: 0.081 | inactive: 0.033
MRPS11 (UniProt P82912) | inactive: 0.013 | inactive: 0.012 | inactive: 0.017 | inactive: -0.112 | inactive: 0 | inactive: 0.168 | inactive: 0.103 | inactive: -0.052 | inactive: -0.028 | inactive: 0.069
MRPL47 (UniProt Q9HD33) | inactive: -0.027 | inactive: -0.051 | inactive: 0.023 | inactive: -0.001 | inactive: 0.017 | inactive: -0.057 | inactive: -0.073 | inactive: -0.041 | inactive: 0.112 | inactive: 0.019

Single records (already shown). Order of values: log2 fold change (lapatinib) | log2 fold change (pictilisib) | log2 fold change (crizotinib) | log2 fold change [1] | log2 fold change (duvelisib) | log2 fold change (gandotinib) | log2 fold change (tozasertib) | log2 fold change (doramapimod) | log2 fold change (bafetinib) | log2 fold change [2]
MRPS5 (UniProt P82675) is entered as inactive: 0.025 | inactive: -0.003 | inactive: -0.01 | inactive: -0.027 | inactive: 0.017 | inactive: -0.041 | inactive: 0.039 | inactive: 0.046 | inactive: -0.002 | inactive: 0.044
MRPL47 (UniProt Q9HD33) is entered as inactive: -0.027 | inactive: -0.051 | inactive: 0.023 | inactive: -0.001 | inactive: 0.017 | inactive: -0.057 | inactive: -0.073 | inactive: -0.041 | inactive: 0.112 | inactive: 0.019
